Data as given in PubChem BioAssay AID1259254 (NCATS, 2017).

- Screen: 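Gene knock-downs that lead to re-replication, shown by excess G2 DNA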 (primary screen)
- System: human HCT116 colorectal cancer cells
- Reagent: single siRNA against human genes
- Duration: 3 days
- Measurement: 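Nuclei stained with Hoechst and imaged; cell-cycle phase assigned by DNA content; G2 share scaled per plate, non-targeting siRNA 0%, GMNN siRNA 100%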
- Direction: G2 robust z-score and G2 cells, % of GMNN control: higher = more G2 cells, more excess DNA replication; raw share of cells in G2: higher = larger share of cells with G2 DNA content
- Active means: 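Active siRNAs have a G2 robust z of 5 or more median absolute deviations over the median, which in these data means about 38% or higher of GMNN control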
The deposit covers about 59,000 reagents; this is a part drawn at random. About 1,550 of all reagents (2.6%) count as active. 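G2 share is only a proxy for re-replication; each gene was hit by three separate siRNAs, and active genes were retested.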 Raw values vary from plate to plate and are shown uncorrected. Entries without a mark were called inactive. Reagents against one gene are numbered here. The record does not give: the amount of reagent.

no.	gene	siRNA no.	G2 robust z-score	G2 cells, % of GMNN control	raw share of cells in G2 (%)
1	IFI16	1	-0.247	1.23	3.95
2	IFI16	2	-0.604	-1.28	4.25
3	IFI16	3	-0.375	0.332	3.23
4	PTGFR	1	-0.757	-2.36	5
5	PTGFR	2	2.81	22.7	12.5
6	PTGFR	3	0.772	8.4	5.85
7	SEC16A	1	-0.561	-0.976	4.89
8	SEC16A	2	-0.574	-1.07	3.5
9	SEC16A	3	-0.486	-0.452	3.24
10	AKR1C3	1	0.486	6.39	5.38
11	AKR1C3	2	-0.305	0.82	5.51
12	AKR1C3	3	1.71	15	10.9
13	TMA16	1	3.57	28.1	15.3
14	TMA16	2	5.75 (active)	43.4	22.1
15	TMA16	3	-0.615	-1.36	2.7
16	PRR4	1	-0.126	2.08	5.8
17	PRR4	2	0.726	8.07	7.47
18	PRR4	3	0.99	9.93	6.89

A few values from the entries so far:
Under “G2 cells, % of GMNN control”, IFI16 #3 has 0.332
AKR1C3 #1, G2 cells, % of GMNN control → 6.39
Under “G2 robust z-score”, TMA16 #3 has -0.615
For “G2 cells, % of GMNN control”, AKR1C3 #2 has 0.82
For “G2 cells, % of GMNN control”, SEC16A #2 shows -1.07
For “raw share of cells in G2 (%)”, TMA16 #2 reads 22.1 (active)

Additional results follow:
no.	gene	siRNA no.	G2 robust z-score	G2 cells, % of GMNN control	raw share of cells in G2 (%)
19	CCNE2	1	-0.489	-0.473	5.1
20	CCNE2	2	0.281	4.94	6.78
21	CCNE2	3	-0.943	-3.67	3.39
22	METTL2A	1	0.484	6.37	7.45
23	METTL2A	2	1.21	11.5	8.47
24	METTL2A	3	0.783	8.47	9.57
25	DNAH11	1	-0.821	-2.81	4.28
26	DNAH11	2	1.35	12.5	9.18
27	DNAH11	3	-0.0933	2.31	5.59
28	NKX3-2	1	0.0404	3.25	6.83
29	NKX3-2	2	0.12	3.81	5.48
30	NKX3-2	3	1.51	13.6	8.86
31	ATG4B	1	3.01	24.2	12.1
32	ATG4B	2	1.98	16.9	9.8
33	ATG4B	3	1.11	10.8	10.7
34	TMCO2	1	-1.11	-4.88	2.34
35	TMCO2	2	-0.0894	2.34	3.84
36	TMCO2	3	-0.204	1.53	3.14
37	STING1	1	-0.334	0.621	4.44
38	STING1	2	-0.809	-2.73	3.05
39	STING1	3	0.844	8.9	7.16
40	DIPK1C	1	0.151	4.03	5.71
41	DIPK1C	2	0.892	9.24	6.08
42	DIPK1C	3	-0.206	1.52	2.26
43	PCNX1	1	-1.06	-4.47	3.23
44	PCNX1	2	-0.976	-3.9	2.52
45	PCNX1	3	-0.0778	2.42	4.08
46	PRSS22	1	0.253	4.75	7.6
47	PRSS22	2	6.47 (active)	48.5	20.4
48	PRSS22	3	6.24 (active)	46.8	21.7
